# Results taken from the supplement of paper PMC8728848.
# This is one part of the list.
# Assays:
# Assay in all cases: glycan array binding signal (z-score within array); higher = stronger binding
# Conditions in all cases: glycan notation: IUPAC condensed, linker removed
# [1] = target: Gal(b1-4)Glc
# Summary of the method: (§1)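 The binding signal is a Z-score computed within each array. Data were drawn from 3228 arrays in the Consortium for Functional Glycomics database, restricted to those with a known protein sequence. Scores were averaged over arrays of the same protein sequence at different concentrations or buffers, and over linkers, and negative values can be taken as non-binding.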
# [2] = target: Gal(b1-4)Glc6S
# Summary of the method: as §1
# [3] = target: Gal(b1-4)GlcNAc
# Summary of the method: as §1
# [4] = target: Gal(b1-4)GlcNAc(a1-6)Gal(b1-4)GlcNAc
# Summary of the method: as §1
# [5] = target: Gal(b1-4)GlcNAc(b1-2)Man
# Summary of the method: as §1
# [6] = target: Gal(b1-4)GlcNAc(b1-2)Man(a1-3)Man(b1-4)GlcNAc(b1-4)GlcNAc
# Summary of the method: as §1
# [7] = target: Gal(b1-4)GlcNAc(b1-2)Man(a1-3)[Gal(b1-4)GlcNAc(b1-2)Man(a1-6)]Man(b1-4)GlcNAc(b1-4)GlcNAc
# Summary of the method: as §1
# [8] = target: Gal(b1-4)GlcNAc(b1-2)Man(a1-3)[Gal(b1-4)GlcNAc(b1-2)Man(a1-6)]Man(b1-4)GlcNAc(b1-4)[Fuc(a1-6)]GlcNAc
# Summary of the method: as §1
# [9] = target: Gal(b1-4)GlcNAc(b1-2)Man(a1-3)[Gal(b1-4)GlcNAc(b1-2)Man(a1-6)][Gal(b1-4)GlcNAc(b1-4)]Man(b1-4)GlcNAc(b1-4)[Fuc(a1-6)]GlcNAc
# Summary of the method: as §1
# [10] = target: Gal(b1-4)GlcNAc(b1-2)Man(a1-3)[Gal(b1-4)GlcNAc(b1-2)Man(a1-6)][GlcNAc(b1-4)]Man(b1-4)GlcNAc(b1-4)[Fuc(a1-6)]GlcNAc
# Summary of the method: as §1
# [11] = target: Gal(b1-4)GlcNAc(b1-2)Man(a1-3)[GlcNAc(b1-2)Man(a1-6)]Man(b1-4)GlcNAc(b1-4)GlcNAc
# Summary of the method: as §1
# [12] = target: Gal(b1-4)GlcNAc(b1-2)Man(a1-3)[GlcNAc(b1-4)][Gal(b1-4)GlcNAc(b1-2)Man(a1-6)]Man(b1-4)GlcNAc(b1-4)GlcNAc
# Summary of the method: as §1
# [13] = target: Gal(b1-4)GlcNAc(b1-2)Man(a1-3)[Man(a1-6)]Man(b1-4)GlcNAc(b1-4)GlcNAc
# Summary of the method: as §1
# [14] = target: Gal(b1-4)GlcNAc(b1-2)Man(a1-6)Man(b1-4)GlcNAc(b1-4)GlcNAc
# Summary of the method: as §1
# [15] = target: Gal(b1-4)GlcNAc(b1-2)Man(a1-6)[GlcNAc(b1-2)Man(a1-3)]Man(b1-4)GlcNAc(b1-4)GlcNAc
# Summary of the method: as §1
# [16] = target: Gal(b1-4)GlcNAc(b1-2)Man(a1-6)[Man(a1-3)]Man(b1-4)GlcNAc(b1-4)GlcNAc
# Summary of the method: as §1
# [17] = target: Gal(b1-4)GlcNAc(b1-2)[Gal(b1-4)GlcNAc(b1-4)]Man(a1-3)[Gal(b1-4)GlcNAc(b1-2)Man(a1-6)]Man(b1-4)GlcNAc(b1-4)GlcNAc
# Summary of the method: as §1
# [18] = target: Gal(b1-4)GlcNAc(b1-2)[Gal(b1-4)GlcNAc(b1-4)]Man(a1-3)[Gal(b1-4)GlcNAc(b1-2)[Gal(b1-4)GlcNAc(b1-6)]Man(a1-6)]Man(b1-4)GlcNAc(b1-4)GlcNAc
# Summary of the method: as §1
# [19] = target: Gal(b1-4)GlcNAc(b1-2)[Gal(b1-4)GlcNAc(b1-4)]Man(a1-3)[GlcNAc(b1-4)][Gal(b1-4)GlcNAc(b1-2)Man(a1-6)]Man(b1-4)GlcNAc(b1-4)GlcNAc
# Summary of the method: as §1
# [20] = target: Gal(b1-4)GlcNAc(b1-2)[Gal(b1-4)GlcNAc(b1-4)]Man(a1-3)[GlcNAc(b1-4)][Gal(b1-4)GlcNAc(b1-2)[Gal(b1-4)GlcNAc(b1-6)]Man(a1-6)]Man(b1-4)GlcNAc(b1-4)GlcNAc
# Summary of the method: as §1
# [21] = target: Gal(b1-4)GlcNAc(b1-2)[Gal(b1-4)GlcNAc(b1-6)]Man(a1-6)[Gal(b1-4)GlcNAc(b1-2)Man(a1-3)]Man(b1-4)GlcNAc(b1-4)GlcNAc
# Summary of the method: as §1
# [22] = target: Gal(b1-4)GlcNAc(b1-2)[Gal(b1-4)GlcNAc(b1-6)]Man(a1-6)[Gal(b1-4)GlcNAc(b1-2)Man(a1-3)]Man(b1-4)GlcNAc(b1-4)[Fuc(a1-6)]GlcNAc
# Summary of the method: as §1
binder,measurement,setting,value
Mermaid2 (Stilbonema majum) (protein) MGSSHHHHHHSSGLVPRGSHMAASGWLRSPQGTVVKLYRRSLSWSKADEFCKDVDGRLVVDRTADMHLFLIKNVLKEKKSRVWVGLRRTAPHSRTWIWSDGTRQNEDDLNTNLWLRDEPNDAAGEEECALFMYSPWEKAWGLNDYLCRGGCRSYQFICEKGIR,glycan array binding signal (z-score),[1],-0.205
same,glycan array binding signal (z-score),[2],-0.674
same,glycan array binding signal (z-score),[3],-0.205
same,glycan array binding signal (z-score),[4],-0.513
same,glycan array binding signal (z-score),[5],1.07
same,glycan array binding signal (z-score),[6],-0.333
same,glycan array binding signal (z-score),[7],-0.337
same,glycan array binding signal (z-score),[8],0.911
same,glycan array binding signal (z-score),[9],-0.652
same,glycan array binding signal (z-score),[10],-0.76
same,glycan array binding signal (z-score),[11],-0.185
same,glycan array binding signal (z-score),[12],-0.474
same,glycan array binding signal (z-score),[13],3.75
same,glycan array binding signal (z-score),[14],-0.175
same,glycan array binding signal (z-score),[15],-0.018
same,glycan array binding signal (z-score),[16],-0.57
same,glycan array binding signal (z-score),[17],0.034
same,glycan array binding signal (z-score),[18],-0.59
same,glycan array binding signal (z-score),[19],-0.22
same,glycan array binding signal (z-score),[20],-0.17
same,glycan array binding signal (z-score),[21],-0.272
same,glycan array binding signal (z-score),[22],-0.326

# 2 entries from above, as tab-separated lines:
binder	measurement	setting	value
Mermaid2 (Stilbonema majum) (protein) MGSSHHHHHHSSGLVPRGSHMAASGWLRSPQGTVVKLYRRSLSWSKADEFCKDVDGRLVVDRTADMHLFLIKNVLKEKKSRVWVGLRRTAPHSRTWIWSDGTRQNEDDLNTNLWLRDEPNDAAGEEECALFMYSPWEKAWGLNDYLCRGGCRSYQFICEKGIR	glycan array binding signal (z-score)	[16]	-0.57
same	glycan array binding signal (z-score)	[17]	0.034
